# Measured values reported in the supplement of paper PMC8007513.
# Some of the results follow. Most values come without repeats; read them as rough.
# Tested on: Saccharomyces cerevisiae BY4743
# Assay: growth (OD600) relative to untreated control; higher = less growth inhibition
# Conditions: compound concentration: 133 uM; 20 h
# Description: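 NMCCC compounds (133 uM, no IPBC) tested alone against Saccharomyces cerevisiae BY4743 in YPD, 96-well plates, starting OD600 ~0.1. Growth was read as OD600 at 20 h and expressed as % of the untreated control. Single pass.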
row,SMILES,growth [%]
1,CCOc1ccc(S(=O)(=O)N2CCOCC2)cc1NC(=O)CCc1ccsc1,101
2,O=C(CNC(=O)c1ccc2ncsc2c1)OCc1ccccc1,89.7
3,CCOC(=O)c1ccc(NC(=O)NC2CC(=O)N(C3CCCC3)C2)cc1 (stereo not given),96.7
4,O=C(Cc1cccc(F)c1)NCC(=O)Nn1cnc2ccccc21,102
5,O=C(CCc1nnc(-c2ccccc2)o1)Nc1ccccc1OC(F)F,89.8
6,Cc1c(C(=O)O)cc(-c2ccc(F)cc2)n1C,101
7,COc1ccc(C(CC(=O)O)NS(=O)(=O)c2ccc3c(c2)N(C(C)=O)CC(C)O3)cc1 (stereo not given),93.5
8,CCCc1cc(NCCN(C)C)n2nc3nc(C)cc(C)c3c2n1,107
9,CC(=O)c1c(C)[nH]c(C(=O)C(C)N2CCC(NS(C)(=O)=O)CC2)c1C (stereo not given),117
10,CCOC(=O)c1[nH]nc(C(=O)c2ccccc2)c1-c1ccccc1,103
11,CCCCS(=O)(=O)Nc1cnn(Cc2ccc(F)cc2)c1,105
12,CCC1=CC=C(Cl)C(=C1NC(=O)C/2=N/N(C)C(=O)/C=C2)CC,99.9
13,CC(C)CCNC(=O)Cn1c(=O)[nH]c2c(-c3ccccc3F)c[nH]c2c1=O,80.5
14,CCC(=O)N[C@@H](Cc1ccccc1)C(=O)Nc1cc(C)on1,105
15,Cc1cc(C)nc(NS(=O)(=O)c2ccc(NC(=O)c3ccccc3OC(C)C)cc2)n1,95.2
16,CSCCC(NC(=O)c1ccc(C(C)(C)C)cc1)C(=O)Nc1ccc(N2CCOCC2)cc1 (stereo not given),103
17,CC(Oc1ccc(Cl)cc1Cl)C(=O)Nc1ccc(S(=O)(=O)N2CCOCC2)cc1 (stereo not given),116
18,CN(C1=CC=CC=C1)C(=O)\C2=C\C(=N/[S](=O)(=O)N2C)C3=CC=C(C)C=C3,103
19,Nc1nnc(SCc2nc(-c3cccc(C(F)(F)F)c3)no2)s1,101
20,Cc1ccc(NC(=O)CCc2ccc(C)o2)c(Br)c1,89.8

row,SMILES,growth [%]
1,Cc1ccc(CNc2ccc(-n3nc(C)cc3C)nn2)cc1,105
2,Cc1cc(NS(=O)(=O)c2ccc(NC(=O)N[C@H](C(=O)O)C(C)C)cc2)no1,105
3,CCOC(=O)N1CCN(c2ccc(S(N)(=O)=O)cn2)CC1,102
4,Cc1cc(C)c2c(n1)nn1c(NCC(C)C)cc(C)nc21,81.7
5,Cc1ccc(NC(=O)CN(C)C(C)c2ccc(-n3cncn3)cc2)cc1C (stereo not given),107
6,Cn1c(Cc2nnnn2Cc2ccc(Cl)cc2Cl)nnc1SCC(N)=O,101
7,CC1=CC=C(C=C1C)/C2=C(C)/C(=N\[S]2(=O)=O)NC3=CC=C(Br)C(=C3)C,99.1
8,CSc1nc(C)c(CCC(=O)OCc2ccc(C(=O)N3CCCC3)cc2)c(C)n1,109
9,COc1cc(CNC(=O)c2ncoc2-c2cccs2)cc(OC)c1OC,102
10,COC(=O)CNC(=O)c1cc2ccccc2cc1OCc1c(C)noc1C,99.9
11,Cc1[nH]c(C(=O)NCC(Nc2ccccc2)C(C)C)c(C)c1C(=O)OC(C)C (stereo not given),94.2
12,CCN(CC)CCS\C1=N\C(=C/C(=O)N1C2=CC=CC=C2C)O,98.4
13,CNC(=O)C(c1ccc(Cl)cc1)N(C)Cc1cc2c(cc1Br)OCCO2 (stereo not given),93.3
14,COC/1=C/C(=O)N(/N=C1C(=O)NC2=CC=C(F)C(=C2)C(F)(F)F)C3=CC=C(C)C=C3,95.2
15,COc1ccccc1N(CCC(N)=O)C(=O)C1COc2ccccc2O1 (stereo not given),104
16,CCc1ccc(N2C(=O)CN(S(C)(=O)=O)CC2(C)C(=O)NCc2ccccc2)cc1 (stereo not given),103
17,CC(C)CNC(=O)CN1\N=N/C2=C(C1=O)C3=C(CC(CC3)C(C)(C)C)S2 (stereo not given),109
18,CN(C)[S](=O)(=O)C/1=C/N(CC(=O)C2=C(C)[N](CC3CCCO3)C(=C2)C)C(=O)/C=C1 (stereo not given),107
19,CC(C)CN1\C(=C(/C(=O)N(C)C1=O)C2=CSC(=N2)NC3=CC=C(Cl)C=C3)N,88.9
20,CCc1ccc(S(=O)(=O)N(CCCN2CCCC2=O)CC(=O)N2CCNCC2)cc1,108

# Quoted from the listing:
# Value for COc1ccccc1N(CCC(N)=O)C(=O)C1COc2ccccc2O1 (stereo not given) under growth [%]: 104
# Value for COc1cc(CNC(=O)c2ncoc2-c2cccs2)cc(OC)c1OC under growth [%]: 102
# Value for Cc1cc(C)c2c(n1)nn1c(NCC(C)C)cc(C)nc21 under growth [%]: 81.7
